The other results are listed elsewhere or left out. Repeats are few or missing, and single values can be far off.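 Cells were imaged in 1,536-well plates, and nuclei stained with an antibody against cleaved PARP were counted against all DNA-stained nuclei to give the apoptosis fraction. Screening doses were chosen to leave most cells alive, and resting and induced cleaved-PARP levels differ strongly between cell lines.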
What was measured:
Experiment in all cases: cleaved PARP positive nuclei fraction relative to DMSO control; melanoma cells; higher = more apoptosis
Settings in all cases: library dose: low library concentration; 72 h
COLO792 = tested on: COLO792
COLO800 = tested on: COLO800
COLO829 = tested on: COLO829
G361 = tested on: G361
IPC-298 = tested on: IPC-298
IST-MEL1 = tested on: IST-MEL1
LB2518-MEL = tested on: LB2518-MEL
LOXIMVI = tested on: LOXIMVI
MEL-HO = tested on: MEL-HO
MZ2-MEL = tested on: MZ2-MEL
MeWo = tested on: MeWo
RPMI7951 = tested on: RPMI7951
RVH-421 = tested on: RVH-421
SkMel28 = tested on: SkMel28
SkMel2 = tested on: SkMel2
SkMel30 = tested on: SkMel30
SkMel5 = tested on: SkMel5
UACC257 = tested on: UACC257
UACC62 = tested on: UACC62

Row | SMILES | cleaved PARP positive nuclei fraction (COLO792) [%] | cleaved PARP positive nuclei fraction (COLO800) [%] | cleaved PARP positive nuclei fraction (COLO829) [%] | cleaved PARP positive nuclei fraction (G361) [%] | cleaved PARP positive nuclei fraction (IPC-298) [%] | cleaved PARP positive nuclei fraction (IST-MEL1) [%] | cleaved PARP positive nuclei fraction (LB2518-MEL) [%] | cleaved PARP positive nuclei fraction (LOXIMVI) [%] | cleaved PARP positive nuclei fraction (MEL-HO) [%] | cleaved PARP positive nuclei fraction (MZ2-MEL) [%] | cleaved PARP positive nuclei fraction (MeWo) [%] | cleaved PARP positive nuclei fraction (RPMI7951) [%] | cleaved PARP positive nuclei fraction (RVH-421) [%] | cleaved PARP positive nuclei fraction (SkMel28) [%] | cleaved PARP positive nuclei fraction (SkMel2) [%] | cleaved PARP positive nuclei fraction (SkMel30) [%] | cleaved PARP positive nuclei fraction (SkMel5) [%] | cleaved PARP positive nuclei fraction (UACC257) [%] | cleaved PARP positive nuclei fraction (UACC62) [%]
1 | COc1cc(Nc2ncc(F)c(Nc3ccc4c(n3)NC(=O)C(C)(C)O4)n2)cc(OC)c1OC [Tamatinib] + O=C(O)c1ccc(-c2c[nH]c3ncc(-c4ccccc4)cc23)cc1C1CCCC1 [GSK650394] (first compound 0.4 µM, partner dose 0.16 µM) | 221 | 272 | 171 | 25.6 | 118 | 145 | 95 | 120 | 140 | 167 | 82.2 | 99 | 109 | 83.3 | 227 | 67.2 | 43.2 | 132 | 215
2 | Clc1ccc(Nc2nnc(Cc3ccncc3)c3ccccc23)cc1 [vatalanib] + CC1(C)NC(=O)N(c2ccc([N+](=O)[O-])c(C(F)(F)F)c2)C1=O [nilutamide] (first compound 2 µM, partner dose 1 µM) | 120 | 160 | 101 | 72.6 | 47.7 | 48.8 | 189 | 77.5 | 147 | 167 | 215 | 112 | 57.6 | 646 | 47.3 | 62.2 | 91 | 91.1 | 169
3 | NC(=O)Nc1cc(-c2cccc(F)c2)sc1C(=O)N[C@H]1CCCNC1 + C[C@@H]1CCN(C(=O)CC#N)C[C@@H]1N(C)c1ncnc2[nH]ccc12 [CP690550] (first compound 0.02 µM, partner dose 1 µM) | 79.8 | 57.8 | 74.1 | 96 | 121 | 46 | 70.5 | 88.2 | 27.3 | 84.7 | 91.2 | 132 | 138 | 75.3 | 108 | 48.7 | 32.9 | 208 | 268
4 | Cn1c(Nc2ccc(C(F)(F)F)cc2)nc2cc(Oc3ccnc(-c4ncc(C(F)(F)F)[nH]4)c3)ccc21 + O=C(Nc1cccc(Cl)c1)Nc1ncc(CCNc2ncnc3ccsc23)s1 [SNS314] (first compound 0.08 µM, partner dose 0.0008 µM) | 504 | 74.3 | 119 | 406 | 171 | 60.1 | 222 | 36.4 | 148 | 137 | 230 | 111 | 111 | 173 | 196 | 155 | 193 | 1100 | 565
5 | OCCn1cc(-c2cnc3nnn(Cc4ccc5ncccc5c4)c3n2)cn1 + O=C(Nc1cccc(Cl)c1)Nc1ncc(CCNc2ncnc3ccsc23)s1 [SNS314] (first compound 1 µM, partner dose 0.0008 µM) | 77.2 | 83.4 | 94 | 105 | 58.8 | 66.2 | 101 | 56.5 | 67 | 106 | 85.9 | 133 | 222 | 87.6 | 128 | 62.2 | 128 | 71.9 | 100
6 | CO[C@@H]1[C@H](N(C)C(=O)c2ccccc2)C[C@H]2O[C@]1(C)n1c3ccccc3c3c4c(c5c6ccccc6n2c5c31)C(=O)NC4 [Midostaurin] + CC(C)(C)c1cnc(CSc2cnc(NC(=O)C3CCNCC3)s2)o1 [SNS-032] (first compound 0.08 µM, partner dose 0.01 µM) | 72.9 | 114 | 57.9 | 107 | 48.5 | 251 | 104 | 100 | 71.4 | 197 | 80.7 | 151 | 112 | 85.9 | 118 | 71.4 | 149 | 256 | 108
7 | Clc1ccc(Nc2nnc(Cc3ccncc3)c3ccccc23)cc1 [vatalanib] + CN(NC(=O)CC(=O)NN(C)C(=S)c1ccccc1)C(=S)c1ccccc1 [STA4783] (first compound 2 µM, partner dose 0.006 µM) | 136 | 218 | 99.8 | 52.8 | 45.9 | 63.9 | 129 | 439 | 74.1 | 105 | 211 | 56.9 | 213 | 32.7 | 50.8 | 120 | 579 | 60.2 | 139
8 | Cn1nnc2c(C(N)=O)ncn2c1=O [temozolomide] + NCC(=O)Nc1ccc(-n2nc(C(F)(F)F)cc2-c2ccc3c(ccc4ccccc43)c2)cc1 [OSU03012] (first compound 2 µM, partner dose 1 µM) | 91.1 | 52.7 | 140 | 87.1 | 163 | 169 | 89.5 | 53 | 125 | 55 | 151 | 79.1 | 23.5 | 102 | 260 | 148 | 107 | 88 | 117
9 | C=CCNC1=C2C[C@@H](C)C[C@H](OC)[C@H](O)[C@@H](C)/C=C(\C)[C@H](OC(N)=O)[C@@H](OC)/C=C\C=C(/C)C(=O)NC(=CC1=O)C2=O [Tanespimycin] + CC1(C)NC(=O)N(c2ccc([N+](=O)[O-])c(C(F)(F)F)c2)C1=O [nilutamide] (first compound 0.002 µM, partner dose 1 µM) | 141 | 39.1 | 89.2 | 180 | 90.4 | 50.3 | 91.9 | 137 | 70.3 | 54.4 | 79.7 | 41.7 | 59.5 | 148 | 45.5 | 58.4 | 79.6 | 190 | 61.2
10 | C=CCNC1=C2C[C@@H](C)C[C@H](OC)[C@H](O)[C@@H](C)/C=C(\C)[C@H](OC(N)=O)[C@@H](OC)/C=C\C=C(/C)C(=O)NC(=CC1=O)C2=O [Tanespimycin] + OCCn1cc(-c2cnc3nnn(Cc4ccc5ncccc5c4)c3n2)cn1 [PF04217903] (first compound 0.002 µM, partner dose 1 µM) | 179 | 226 | 93.4 | 60.9 | 98 | 147 | 185 | 118 | 74.9 | 103 | 72.5 | 115 | 24.6 | 79.2 | 126 | 56.4 | 70.4 | 34.7 | 67.5
11 | Cn1c(Nc2ccc(C(F)(F)F)cc2)nc2cc(Oc3ccnc(-c4ncc(C(F)(F)F)[nH]4)c3)ccc21 + CO[C@@H]1[C@H](N(C)C(=O)c2ccccc2)C[C@H]2O[C@]1(C)n1c3ccccc3c3c4c(c5c6ccccc6n2c5c31)C(=O)NC4 [Midostaurin] (first compound 0.08 µM, partner dose 0.08 µM) | 581 | 73.8 | 87.3 | 153 | 108 | 113 | 88.9 | 196 | 262 | 147 | 176 | 77.6 | 145 | 361 | 142 | 92.2 | 409 | 112 | 200
12 | CC(=O)c1c(C)c2cnc(Nc3ccc(N4CCNCC4)cn3)nc2n(C2CCCC2)c1=O [palbociclib] + O=C(CCCCCCC(=O)Nc1ccccc1)NO [vorinostat] (first compound 0.04 µM, partner dose 0.08 µM) | 35.6 | 33.3 | 50.1 | 53.9 | 49.6 | 54.7 | 57.2 | 30.8 | 109 | 151 | 93.7 | 118 | 67.3 | 92.1 | 77.8 | 84.7 | 102 | 147 | 139
13 | O=C(CCCCCCC(=O)Nc1ccccc1)NO [vorinostat] + O=C(Nc1cccc(Cl)c1)Nc1ncc(CCNc2ncnc3ccsc23)s1 [SNS314] (first compound 0.08 µM, partner dose 0.0008 µM) | 64.7 | 56.4 | 115 | 51.4 | 62 | 56.5 | 172 | 88.9 | 35.4 | 207 | 103 | 105 | 55 | 34.8 | 57.6 | 58.4 | 72.4 | 164 | 79.9
14 | Cn1nnc2c(C(N)=O)ncn2c1=O [temozolomide] + C[C@@H]1CCN(C(=O)CC#N)C[C@@H]1N(C)c1ncnc2[nH]ccc12 [CP690550] (first compound 2 µM, partner dose 1 µM) | 148 | 84.2 | 110 | 94.7 | 47.7 | 51.8 | 138 | 169 | 132 | 124 | 182 | 35.9 | 143 | 43.8 | 109 | 80.6 | 61.8 | 57.5 | 70.6
15 | OCc1c[nH]c2ccccc12 [Indole-3-carbinol] + OCCn1cc(-c2cnc3nnn(Cc4ccc5ncccc5c4)c3n2)cn1 [PF04217903] (first compound 0.8 µM, partner dose 1 µM) | 302 | 32.8 | 86.8 | 52.4 | 41.7 | 143 | 57.1 | 101 | 145 | 62.5 | 99 | 32.5 | 50.5 | 59.9 | 75.2 | 257 | 11.7 | 353 | 270
16 | Nc1cccc2c1CN(C1CCC(=O)NC1=O)C2=O (configuration not stated) [lenalidomide] + CC1(C)NC(=O)N(c2ccc([N+](=O)[O-])c(C(F)(F)F)c2)C1=O [nilutamide] (first compound 1 µM, partner dose 1 µM) | 64.3 | 32.9 | 79.2 | 67.7 | 93.4 | 33 | 49 | 84.8 | 67.6 | 53 | 101 | 41 | 51.6 | 288 | 87.2 | 123 | 95.7 | 74.1 | 91.1
17 | O=C(CCCCCCC(=O)Nc1ccccc1)NO [vorinostat] + C[C@@H]1CCN(C(=O)CC#N)C[C@@H]1N(C)c1ncnc2[nH]ccc12 [CP690550] (first compound 0.08 µM, partner dose 1 µM) | 128 | 104 | 57.1 | 136 | 184 | 239 | 157 | 60.2 | 274 | 190 | 111 | 59.8 | 44.2 | 247 | 115 | 103 | 44.3 | 59.6 | 91.3
18 | COCC[n+]1c2c(n(Cc3cnccn3)c1C)C(=O)c1ccccc1C2=O + NCC(=O)Nc1ccc(-n2nc(C(F)(F)F)cc2-c2ccc3c(ccc4ccccc43)c2)cc1 [OSU03012] (first compound 0.0004 µM, partner dose 1 µM) | 64.4 | 112 | 98 | 97.3 | 111 | 119 | 89 | 81.4 | 139 | 172 | 169 | 129 | 68.1 | 78.5 | 214 | 148 | 104 | 220 | 32.5

Some of the entries so far, as comma-separated lines.
Row,SMILES,cleaved PARP positive nuclei fraction (COLO792) [%],cleaved PARP positive nuclei fraction (COLO800) [%],cleaved PARP positive nuclei fraction (COLO829) [%],cleaved PARP positive nuclei fraction (G361) [%],cleaved PARP positive nuclei fraction (IPC-298) [%],cleaved PARP positive nuclei fraction (IST-MEL1) [%],cleaved PARP positive nuclei fraction (LB2518-MEL) [%],cleaved PARP positive nuclei fraction (LOXIMVI) [%],cleaved PARP positive nuclei fraction (MEL-HO) [%],cleaved PARP positive nuclei fraction (MZ2-MEL) [%],cleaved PARP positive nuclei fraction (MeWo) [%],cleaved PARP positive nuclei fraction (RPMI7951) [%],cleaved PARP positive nuclei fraction (RVH-421) [%],cleaved PARP positive nuclei fraction (SkMel28) [%],cleaved PARP positive nuclei fraction (SkMel2) [%],cleaved PARP positive nuclei fraction (SkMel30) [%],cleaved PARP positive nuclei fraction (SkMel5) [%],cleaved PARP positive nuclei fraction (UACC257) [%],cleaved PARP positive nuclei fraction (UACC62) [%]
3,"NC(=O)Nc1cc(-c2cccc(F)c2)sc1C(=O)N[C@H]1CCCNC1 + C[C@@H]1CCN(C(=O)CC#N)C[C@@H]1N(C)c1ncnc2[nH]ccc12 [CP690550] (first compound 0.02 µM, partner dose 1 µM)",79.8,57.8,74.1,96,121,46,70.5,88.2,27.3,84.7,91.2,132,138,75.3,108,48.7,32.9,208,268
4,"Cn1c(Nc2ccc(C(F)(F)F)cc2)nc2cc(Oc3ccnc(-c4ncc(C(F)(F)F)[nH]4)c3)ccc21 + O=C(Nc1cccc(Cl)c1)Nc1ncc(CCNc2ncnc3ccsc23)s1 [SNS314] (first compound 0.08 µM, partner dose 0.0008 µM)",504,74.3,119,406,171,60.1,222,36.4,148,137,230,111,111,173,196,155,193,1100,565

— the supplement of paper PMC4604168 (melanoma cell lines)
